The list shows a part of the results. These are further read-outs of the screen, such as a control signal, another cell line or another target. No call is given for them. Compounds called inactive in the main read-out are mostly missing here. Potencies come from curve fits of mixed quality, noted in brackets.
Test: qHTS Assay for Modulators of Lamin A Splicing
Settings: HeLa LMNA splicing GFP/RFP minigene ratio, 48 h
Outline: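 S3 HeLa stable clones carrying a lamin A-EGFP splicing minigene plus DsRed2 were seeded at 600 cells/well in Opti-MEM with 2% FBS, pin-dosed and incubated 48 h at 37°C. Acumen cytometry (488 nm) gave the GFP/RFP total-intensity ratio.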

[1] = measured here: GFP splicing reporter channel
[2] = measured here: RFP viability control channel

Row | Structure (SMILES) | AC50 [1] | AC50 [2]
1 | CN1CCN(c2ncc3nc(-c4cn(C)c5ccccc45)c(=O)n(C)c3n2)CC1 | 25.1 µM [falling, partial curve, poor fit] | 
2 | Cc1sc(NC(=O)c2ccco2)c(C(c2cccnc2)N2CCN(c3ccc(F)cc3)CC2)c1C (stereo not drawn) | 2 µM [rising, partial curve, poor fit] | 0.447 µM [rising, full curve, poor fit]
3 | COC(=O)c1ccccc1NC(=S)N(Cc1ccc2c(c1)OCO2)Cc1cc2cc(OC)ccc2[nH]c1=O |  | 12.6 µM [rising, single point]
4 | Cc1cc(=O)[nH]c(SCC(=O)Nc2cccc(C(F)(F)F)c2)n1 |  | 35.5 µM [rising, single point]
5 | Cc1c(C(=O)OCC(=O)Nc2cccc(S(N)(=O)=O)c2)oc2c1ccc1ccccc12 | 8.91 µM [rising, partial curve, poor fit] | 
6 | COc1cc(C(=O)Nc2nnc(C3CC3)s2)ccc1OCc1c(C)noc1C | 0.00355 µM [rising, full curve, poor fit] | 
7 | NNC(=S)NC1CCCCC1 | 20 µM [rising, single point] | 12.6 µM [rising, single point]
8 | Cn1c(-n2cccc2)c(-c2c(-c3ccc(F)cc3)[nH]c3c2c(=O)n(C)c(=O)n3C)c(=O)n(C)c1=O |  | 0.0316 µM [falling, full curve, poor fit]
9 | Cc1noc(C)c1COC(=O)c1cccc(N(C)C)c1 | 10 µM [falling, partial curve, poor fit] | 0.0316 µM [falling, full curve, poor fit]
10 | CN(C)CC/C=C1\c2ccccc2COc2ccccc21 | 0.0224 µM [falling, full curve, poor fit] | 0.398 µM [falling, single point]
11 | CC1CC(C)CN(S(=O)(=O)c2ccc(NC(=O)C3COc4ccccc4O3)cc2)C1 (stereo not drawn) |  | 25.1 µM [rising, single point]
12 | CC1=C(c2ccc(C(C)C)cc2)S(=O)(=O)N=C1N1CCC(C(=O)NCc2ccccc2)CC1 | 22.4 µM [falling, partial curve, poor fit] | 22.4 µM [falling, partial curve, poor fit]
13 | COC(=O)c1cc(-c2ccc(C)o2)nc2ccccc12 | 11.2 µM [falling, single point] | 11.2 µM [falling, partial curve]
14 | CN1[C@@H]2CC[C@H]1CC(OC(=O)[C@@H](CO)c1ccccc1)C2 (stereo partly drawn) | 0.355 µM [falling, full curve, poor fit] | 
15 | COc1ccc(S(=O)(=O)N2CCc3ccccc32)cc1C(=O)OCc1c(C)noc1C | 14.1 µM [rising, single point] | 15.8 µM [rising, single point]
16 | Cn1c(=O)oc2cc(S(=O)(=O)Nc3cccc4c3CCCC4)ccc21 |  | 11.2 µM [rising, partial curve]
17 | COc1cc(C2C3=C(CCCC3=O)Nc3ccc4ncccc4c32)ccc1O (stereo not drawn) |  | 4.47 µM [rising, partial curve, poor fit]
18 | O=C(NC(=S)Nc1ccc(-c2nc3ncccc3o2)cc1)c1ccccc1F |  | 0.355 µM [rising, partial curve, poor fit]
19 | COc1ccc(OC)c(S(=O)(=O)N(C)CC(=O)Nc2cc(Cl)ccc2OC)c1 |  | 35.5 µM [rising, single point]
20 | CC(=O)c1cnc(Nc2ccccc2)s1 | 11.2 µM [rising, single point] | 
21 | O=C(COc1cccc(NC(=O)c2ccccc2)c1)c1ccc(F)cc1 | 17.8 µM [rising, single point] | 35.5 µM [rising, single point]
22 | Cc1ccccc1Cn1cnc2c(NS(C)(=O)=O)c(C)c(C)cc21 |  | 22.4 µM [rising, single point]
23 | N/C(=N\OC(=O)c1ccco1)c1ccc(Br)cc1 | 2.51 µM [rising, partial curve] | 3.16 µM [rising, single point]
24 | Cc1ccc(NC(=O)CCc2c(C)nn(-c3ccc(N4CCOCC4)nn3)c2C)c(C)c1 |  | 4.47 µM [rising, partial curve, poor fit]
25 | O=C(CSc1cccc(C(F)(F)F)c1)Nc1cc(S(=O)(=O)N2CCCC2)ccc1Cl | 35.5 µM [rising, single point] | 35.5 µM [rising, single point]
26 | CCCCN(CC)C(=O)CSc1nc2n[nH]c(C)c2c(=N)n1-c1cccc(C)c1 |  | 0.00501 µM [falling, partial curve, poor fit]
27 | CCc1c(C)sc(NC(=O)c2cccs2)c1C(=O)OC(C)C | 12.6 µM [rising, single point] | 

Row | Structure (SMILES) | AC50 [1] | AC50 [2]
28 | CCCCN(C)Cc1c(C(=O)N2CCc3ccccc3C2)nc2ccc(Cl)cn12 |  | 39.8 µM [falling, partial curve, poor fit]
29 | CC[C@H](C(=O)[C@H](C)[C@H](O)[C@H](C)CCc1ccc(C)c(O)c1C(=O)O)[C@H]1O[C@](CC)([C@@H]2CC[C@@](O)(CC)[C@H](C)O2)C[C@H]1C | 10 µM [falling, single point] | 10 µM [falling, single point]
30 | Cc1ccc(S(=O)(=O)N2CCC(C(=O)Nc3ccccc3N3CCCCC3)CC2)cc1 | 1 µM [rising, full curve, poor fit] | 20 µM [rising, partial curve, poor fit]
31 | COC(=O)c1cccnc1-n1c(=O)c2cccnc2n(Cc2cccc(C(F)(F)F)c2)c1=O | 8.91 µM [falling, single point] | 
32 | COc1ccc(Cn2c(CO)cnc2SCC(=O)Nc2ccc3c(c2)OCCO3)cc1 | 0.891 µM [rising, full curve, poor fit] | 
33 | O=C(Nc1nccs1)c1ccc(S(=O)(=O)NCc2cccs2)cc1 | 7.94 µM [rising, single point] | 15.8 µM [rising, single point]
34 | Cc1ccc(Cl)cc1N1CCN(C(=O)Cc2cn(C)c3ccccc23)CC1 |  | 35.5 µM [falling, single point]
35 | O=C(CCCCn1c(=O)[nH]c2ccccc2c1=O)N1CCN(c2cccc(C(F)(F)F)c2)CC1 | 7.08 µM [rising, partial curve] | 15.8 µM [rising, partial curve]
36 | COc1ccc2c(c1)C(C)=CC(C)(C)N2C(=O)CSc1nnc(-c2ccc(C)cc2)o1 |  | 35.5 µM [rising, single point]
37 | CN(C)CCOc1nc(-c2ccccc2)nc2c1oc1ccccc12 |  | 14.1 µM [rising, partial curve]
38 | CCOC(=O)N1CCN(C(=O)CSc2nc(-c3cccc(C)c3)ns2)CC1 | 15.8 µM [rising, single point] | 15.8 µM [rising, single point]
39 | Cc1cccc(-n2c(CCc3ccccc3)nnc2SCC(=O)c2ccccc2)c1 |  | 35.5 µM [rising, single point]
40 | O=C(Nc1ccc2nn(-c3ccc(F)cc3)nc2c1)c1cccnc1 | 4.47 µM [falling, full curve, poor fit] | 6.31 µM [falling, full curve, poor fit]
41 | COc1cc2c(cc1NC(=O)COC(=O)Cn1cnc3ccccc31)oc1ccccc12 |  | 5.62 µM [rising, single point]
42 | N#CC1=C(N)Oc2cc(O)c(C=Nc3ccccc3)cc2C1c1ccccc1 (stereo not drawn) | 35.5 µM [falling, single point] | 2 µM [rising, partial curve]
43 | Cc1ccc(NC(=O)c2cccc(S(=O)(=O)N(C)c3ccccc3)c2)cc1S(=O)(=O)N1CCOCC1 | 11.2 µM [rising, partial curve, poor fit] | 20 µM [rising, partial curve]
44 | CC(Oc1ccc(Cl)cc1Cl)C(=O)Nc1cccnc1 (stereo not drawn) |  | 8.91 µM [rising, partial curve]
45 | C=CCN1C=CC(=C/C=C(/C#N)C(=O)OCC)C=C1 | 25.1 µM [falling, single point] | 14.1 µM [falling, single point]
46 | O=C(NCCCn1ccnc1)c1cc(-c2ccc(Br)cc2)on1 |  | 0.398 µM [rising, full curve, poor fit]
47 | NS(=O)(=O)c1cccc(NC(=S)NC(=O)C23CC4CC(CC(C4)C2)C3)c1 |  | 14.1 µM [rising, partial curve]
48 | COc1ccc([N+](=O)[O-])cc1NC(=O)CS(=O)(=O)c1ccc(C)cc1 | 6.31 µM [rising, partial curve, poor fit] | 
49 | Cc1ccc(/C=C2/NC(=O)N(Cc3ccccc3)C2=O)s1 | 6.31 µM [rising, partial curve, poor fit] | 
50 | Clc1cccc(N2CCN(c3nnnn3-c3ccccc3)CC2)c1 | 0.501 µM [falling, full curve, poor fit] | 
51 | CCn1c(=O)cc(SCC(=O)N2CCN(Cc3ccc4c(c3)OCO4)CC2)c2ccccc21 | 11.2 µM [rising, single point] | 25.1 µM [rising, single point]
52 | O=C(Cc1ccc(-c2ccccc2)cc1)NCc1ccccc1 |  | 0.1 µM [rising, full curve]
53 | c1ccc(-c2ncnc3cc4n(c23)CCC4)cc1 |  | 14.1 µM [rising, single point]

Retrieved by compound from above (four):
Row | Structure (SMILES) | AC50 [1] | AC50 [2]
24 | Cc1ccc(NC(=O)CCc2c(C)nn(-c3ccc(N4CCOCC4)nn3)c2C)c(C)c1 |  | 4.47 µM [rising, partial curve, poor fit]
49 | Cc1ccc(/C=C2/NC(=O)N(Cc3ccccc3)C2=O)s1 | 6.31 µM [rising, partial curve, poor fit] | 
27 | CCc1c(C)sc(NC(=O)c2cccs2)c1C(=O)OC(C)C | 12.6 µM [rising, single point] | 
53 | c1ccc(-c2ncnc3cc4n(c23)CCC4)cc1 |  | 14.1 µM [rising, single point]

— PubChem BioAssay AID1487 (National Center for Advancing Translational Sciences (NCATS), 2009)
